{"source": "paper PMC8724216", "about": "“Biochemical and structural characterization of beta-carbonic anhydrase from the parasite Trichomonas vaginalis” (Journal of Molecular Medicine (Berlin, Germany), 2021)", "target": "T1, TvaCA2 (Trichomonas vaginalis, UniProt A2DLG4)", "T1 construct": "gene TVAG_268150; recombinant in E. coli BL21 Star (DE3), pBVboostFG; 6xHis-tag removed by thrombin; 185 residues; homodimer, zinc", "T1 sequence (A2DLG4 1-184)": "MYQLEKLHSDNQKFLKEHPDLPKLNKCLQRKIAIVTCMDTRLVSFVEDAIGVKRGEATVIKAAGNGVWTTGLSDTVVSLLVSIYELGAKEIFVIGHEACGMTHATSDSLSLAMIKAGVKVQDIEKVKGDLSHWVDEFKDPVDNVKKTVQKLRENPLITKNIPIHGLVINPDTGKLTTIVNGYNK", "experiment": "stopped-flow CO2 hydration, phenol red", "assay_type": "biochemical", "conditions": "read-out: TvaCA2 β", "data": [{"smiles": "CC(=O)Nc1nnc(S(N)(=O)=O)s1", "note": "[AAZ, acetazolamide]", "values": [{"measurement": "Ki", "value": 0.223, "unit": "µM"}]}, {"smiles": "CCN[C@H]1C[C@H](C)S(=O)(=O)c2sc(S(N)(=O)=O)cc21", "note": "[DZA]", "values": [{"measurement": "Ki", "value": 1.7, "unit": "µM"}]}]}
